Laboratory results taken from PubChem BioAssay AID290 (DTP/NCI, 2004).
The list does not hold the whole screen: it is rich in T/C values a quarter to a half above the control, in often repeated tests (any T/C) and in doses without a T/C. Other doses and runs of a compound stand elsewhere. T/C gives the treated animals as a percentage of the vehicle group. Schedule codes are those of the source, read here as Q, the interval in days (D) or hours (H), X, the number of doses. Some T/C values carry the count of animals alive at the toxicity check (mostly the fifth day); where none is given, no animal had died by that day. Some entries hold several experiments; the values are given in rising order. Some entries give survivors of the animals treated and no T/C: the source files T/C as zero there, which appears to mark a toxic dose or a test without result, not a measured value. Some doses without a T/C left all or most animals alive at the check, yet need not have been tolerated: the source hardly ever lists a survival T/C far under the control, and the zero likely stands for such cases as well. Counts of survivors are from the toxicity check (mostly the fifth day) where no day follows; animals may have died later. For survival time, the PubChem record calls one and a half times the control and up active, and a quarter to a half above the control has no call in these data; cut-offs in other NCI protocols can differ.

System: mice, P1798 lymphosarcoma sc, survival or tumor weight T/C
Experiment: NCI In Vivo Anticancer Drug Screen. Data for tumor model P1798 Lymphosarcoma (subcutaneous) in unknown mice
Experimental: The antitumor activity of compounds was measured in mice bearing transplantable tumors. Survival or tumor size were measured and the results are expressed as the measurement made in the treated group (T) divided by the measurement made in the vehicle treated control group (C). The tumor model used in this assay is P1798 Lymphosarcoma (subcutaneous) in unknown mice

[1] = T/C endpoint: mean tumor weight, dose: 50.0 mg/kg/injection, schedule: Q01DX010 (ip), vehicle: saline, higher T/C = larger tumour

SMILES: CO[C@H](C(=O)[C@@H](O)[C@@H](C)O)[C@@H]1Cc2cc3cc(OC4CC(OC5CC(O)C(O)C(C)O5)C(O)C(C)O4)c(C)c(O)c3c(O)c2C(=O)[C@H]1OC1CC(OC2CC(OC3CC(C)(O)C(O)C(C)O3)C(O)C(C)O2)C(O)C(C)O1 (stereo not given in full)
- T/C (T/C endpoint: mean tumor weight, dose: 0.12 mg/kg/injection, schedule: Q01DX011 (ip), vehicle: saline, evaluated on day 12, higher T/C = larger tumour): 91, 92, 114, 118 % of control
- T/C (T/C endpoint: mean tumor weight, dose: 0.25 mg/kg/injection, schedule: Q01DX011 (ip), vehicle: saline, evaluated on day 12, higher T/C = larger tumour): 48, 61, 86, 138 % of control [9 of 10 alive]
- survivor count (T/C endpoint: mean tumor weight, dose: 0.25 mg/kg/injection, schedule: Q01DX011 (ip), vehicle: saline, higher T/C = larger tumour): 5 of 10
- T/C (T/C endpoint: mean tumor weight, dose: 0.5 mg/kg/injection, schedule: Q01DX011 (ip), vehicle: saline, evaluated on day 12, higher T/C = larger tumour): 10 [7 of 10 alive] and 34 % of control [9 of 10 alive]
- survivor count (T/C endpoint: mean tumor weight, dose: 0.5 mg/kg/injection, schedule: Q01DX011 (ip), vehicle: saline, higher T/C = larger tumour): 5 of 10
- survivor count (T/C endpoint: mean tumor weight, dose: 1.0 mg/kg/injection, schedule: Q01DX011 (ip), vehicle: saline, higher T/C = larger tumour): 0 of 10
- survivor count (T/C endpoint: mean tumor weight, dose: 2.0 mg/kg/injection, schedule: Q01DX011 (ip), vehicle: saline, higher T/C = larger tumour): 0 of 10

SMILES: O=C(Nc1ccc(C2=NCCN2)cc1)c1ccc(C(=O)Nc2ccc(C3=NCCN3)cc2)c(Cl)c1
- T/C (T/C endpoint: mean tumor weight, dose: 6.3 mg/kg/injection, schedule: Q01DX010 (ip), vehicle: water, evaluated on day 14, higher T/C = larger tumour): 141 % of control
- survivor count (T/C endpoint: mean tumor weight, dose: 25.0 mg/kg/injection, schedule: Q01DX010 (ip), vehicle: water, higher T/C = larger tumour): 5 of 10
- survivor count (T/C endpoint: mean tumor weight, dose: 50.0 mg/kg/injection, schedule: Q01DX010 (ip), vehicle: water, higher T/C = larger tumour): 1 of 10

SMILES: CCNc1nncs1
- survivor count (T/C endpoint: mean tumor weight, dose: 75.0 mg/kg/injection, schedule: Q01DX010 (ip), vehicle: carboxymethylcellulose (CMC), higher T/C = larger tumour): 6 of 10
- survivor count (T/C endpoint: mean tumor weight, dose: 150.0 mg/kg/injection, schedule: Q01DX010 (ip), vehicle: carboxymethylcellulose (CMC), higher T/C = larger tumour): 0 of 10

SMILES: COc1cccc2c1C(=O)c1c(O)c3c(c(O)c1C2=O)C[C@@](O)(C(=O)CO)C[C@@H]3OC1CC(N)C(O)C(C)O1 (stereo not given in full)
- survivor count (T/C endpoint: median survival time, dose: 0.25 mg/kg/injection, schedule: Q01DX010 (ip), vehicle: water, higher T/C = longer survival): 10 of 10
- survivor count (T/C endpoint: median survival time, dose: 2.0 mg/kg/injection, schedule: Q01DX010 (ip), vehicle: water, higher T/C = longer survival): 9 of 10
- survivor count (T/C endpoint: median survival time, dose: 4.0 mg/kg/injection, schedule: Q01DX010 (ip), vehicle: water, higher T/C = longer survival): 10 of 10
- survivor count (T/C endpoint: median survival time, dose: 4.0 mg/kg/injection, schedule: Q04DX007 (ip), vehicle: water, higher T/C = longer survival): 10 of 10
- survivor count (T/C endpoint: median survival time, dose: 8.0 mg/kg/injection, schedule: Q04DX007 (ip), vehicle: water, higher T/C = longer survival): 10 of 10
- survivor count (T/C endpoint: median survival time, dose: 16.0 mg/kg/injection, schedule: Q04DX007 (ip), vehicle: water, higher T/C = longer survival): 10 of 10

SMILES: CCn1cnc2c(=S)nc[nH]c21
- survivor count (T/C endpoint: mean tumor weight, dose: 125.0 mg/kg/injection, schedule: Q01DX010 (ip), vehicle: carboxymethylcellulose (CMC), higher T/C = larger tumour): 2 of 10

SMILES: CN(N=O)C(N)=O
- survivor count [1]: 0 of 10

SMILES: Cn1cnc([N+](=O)[O-])c1Sc1nc(N)nc2nc[nH]c12
- survivor count (T/C endpoint: mean tumor weight, dose: 20.0 mg/kg/injection, schedule: Q01DX010 (ip), vehicle: saline, higher T/C = larger tumour): 0 of 6

SMILES: N#CCSc1ncnc2nc[nH]c12
- survivor count (T/C endpoint: mean tumor weight, dose: 100.0 mg/kg/injection, schedule: Q01DX010 (ip), vehicle: carboxymethylcellulose (CMC), higher T/C = larger tumour): 1 of 10
- survivor count (T/C endpoint: mean tumor weight, dose: 200.0 mg/kg/injection, schedule: Q01DX010 (ip), vehicle: carboxymethylcellulose (CMC), higher T/C = larger tumour): 0 of 10

SMILES: O=P1(N(CCCl)CCCl)NCCCO1 (stereo not given)
- T/C (T/C endpoint: mean tumor weight, dose: 12.5 mg/kg/injection, schedule: Q01DX010 (ip), vehicle: saline, evaluated on day 14, higher T/C = larger tumour): 45 [9 of 10 alive], 48 [9 of 10 alive], 63, 73, 79 [9 of 10 alive], 119, 126 % of control
- T/C (T/C endpoint: mean tumor weight, dose: 12.5 mg/kg/injection, schedule: Q01DX010 (ip), vehicle: saline, evaluated on day 20, higher T/C = larger tumour): 95 % of control [7 of 10 alive]
- T/C (T/C endpoint: mean tumor weight, dose: 25.0 mg/kg/injection, schedule: Q01DX010 (ip), vehicle: saline, evaluated on day 14, higher T/C = larger tumour): 21, 29, 30 [8 of 10 alive], 35, 58, 62, 65, 70 % of control
- T/C (T/C endpoint: mean tumor weight, dose: 25.0 mg/kg/injection, schedule: Q01DX010 (ip), vehicle: saline, evaluated on day 20, higher T/C = larger tumour): 114 % of control
- T/C (T/C endpoint: mean tumor weight, dose: 50.0 mg/kg/injection, schedule: Q01DX010 (ip), vehicle: saline, evaluated on day 14, higher T/C = larger tumour): 5 [9 of 10 alive], 23, 30 [7 of 10 alive], 38, 42, 74 % of control
- survivor count [1]: 3 of 10 and 6 of 10
- survivor count (T/C endpoint: mean tumor weight, dose: 53.0 mg/kg/injection, schedule: Q01DX011 (ip), vehicle: saline, higher T/C = larger tumour): 1 of 10
- survivor count (T/C endpoint: mean tumor weight, dose: 100.0 mg/kg/injection, schedule: Q01DX010 (ip), vehicle: saline, higher T/C = larger tumour): 1 of 10 and 3 of 10
- survivor count (T/C endpoint: median survival time, dose: 100.0 mg/kg/injection, schedule: Q01DX010 (ip), vehicle: saline, higher T/C = longer survival): 10 of 10
- T/C (T/C endpoint: median survival time, dose: 200.0 mg/kg/injection, schedule: Q01DX001 (ip), vehicle: saline, higher T/C = longer survival): 129 % of control
- survivor count (T/C endpoint: median survival time, dose: 200.0 mg/kg/injection, schedule: Q01DX010 (ip), vehicle: saline, higher T/C = longer survival): 6 of 10
- survivor count (T/C endpoint: median survival time, dose: 400.0 mg/kg/injection, schedule: Q01DX001 (ip), vehicle: saline, higher T/C = longer survival): 5 of 5
